These are yes or no findings as the source states them, for the method shown. Some entries that bind do so weakly or less than the wild type.

This note sets out measurements from patent US20250222127A1, “COMPOSITIONS AND METHODS FOR TREATING AND PREVENTING TRANSPLANT-ASSOCIATED INJURY” (MUSC Foundation For Research Development, priority 2016, published 2025).

The assay concerns the target T1, annexin IV in post-ischemic mouse tissue (transplanted heart, brain-dead donor cardiac grafts, liver) (mouse) (UniProt P97429).
T1 sequence (looked up): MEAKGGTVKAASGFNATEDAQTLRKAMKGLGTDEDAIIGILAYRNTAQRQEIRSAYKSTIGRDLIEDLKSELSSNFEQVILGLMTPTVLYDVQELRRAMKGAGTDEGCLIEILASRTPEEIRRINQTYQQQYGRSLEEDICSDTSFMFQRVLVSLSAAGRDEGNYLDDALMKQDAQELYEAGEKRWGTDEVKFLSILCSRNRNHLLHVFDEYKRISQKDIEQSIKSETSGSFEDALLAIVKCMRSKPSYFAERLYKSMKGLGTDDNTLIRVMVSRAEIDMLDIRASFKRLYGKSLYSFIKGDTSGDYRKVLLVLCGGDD
Description: in vivo targeting, mouse cardiac allograft model.

B1: B4scFv-Crry (scFv)
chain: VKLQESGPELVKPGASVKISCKASGYTFTDYYMNWVKQSHGKSLEWIGDINPNNGGTSYNQKFKGKATLTVDKSSSTAYMELRSLTSEDSAVYYCARYDYAWYFDVWGQGTTVTVSSGGGGSGGGGSGGGGDVLMTQTPLSLPVSLGDQASISCRSSQSIVHSNGNTYLEWYLQKPGQSPKLLIYKVSNRFSGVPDRFSGSGSGTDFTLKISRVEAEDLGVYYCFQGSHVPYTFGGGTKLEIKRGGGGSGGGGSCPAPSQLPSAKPINLTDESMFPIGTYLLYECLPGYIKRQFSITCKQDSTWTSAEDKCIRKQCKTPSDPENGLVHVHTGIQFGSRINYTCNQGYRLIGSSSAVCVITDQSVDWDTEAPICEWIPCEIPPGIPNGDFFSSTREDFHYGMVVTYRCNTDARGKALFNLVGEPSLYCTSNDGEIGVWSGPPPQCIELNKCTPPPYVENAVMLSENRSLFSLRDIVEFRCHPGFIMKGASSVHCQSLNKWEPELPSCFKGVICRLPQEMSGFQKGLGMKKEYYYGENVTLECEDGYTLEGSSQSQCQSDGSWNPLLAKCVSRSIIEGRHHHHHH
modifications: 125I radiolabel in the graft perfusion experiment (position not given)
notes: also called B4-Crry; B4Crry
On to B1, for which the binding result was “binds”.
